Measurements: paper PMC10338470, “Phase 1 study of GSK3368715, a type I PRMT inhibitor, in patients with advanced solid tumors” (British Journal of Cancer, 2023)
“And” between values parts separate entries of the source, which are not always exact repeats. Equal values may be shown once.

Experiment: Time on GSK3368715 (treatment duration)
Format: in vivo, human

## CCOCC1(COCC)CCC(c2[nH]ncc2CN(C)CCNC)CC1 [GSK3368715]
50 mg (n = 3)
  Time on GSK3368715 3 months to 6 months: 0 n (%)
  Time on GSK3368715, median (range): 53 (25, 56) days
  Time on GSK3368715 <3 months: 3 (100) n (%)
  Time on GSK3368715 >6 months to 12 months: 0 n (%)
  Time on GSK3368715 >12 months: 0
100 mg (n = 16)
  Time on GSK3368715 3 months to 6 months: 3 (19) n (%)
  Time on GSK3368715, median (range): 58 (13, 224) days
  Time on GSK3368715 <3 months: 12 (75) n (%)
  Time on GSK3368715 >6 months to 12 months: 1 (6) n (%)
  Time on GSK3368715 >12 months: 0
200 mg (n = 12)
  Time on GSK3368715 3 months to 6 months: 2 (17) n (%)
  Time on GSK3368715, median (range): 24 (1, 114) days
  Time on GSK3368715 <3 months: 10 (83) n (%)
  Time on GSK3368715 >6 months to 12 months: 0 n (%)
  Time on GSK3368715 >12 months: 0
Total (N = 31)
  Time on GSK3368715 3 months to 6 months: 5 (16) n (%)
  Time on GSK3368715, median (range): 49 (1, 224) days
  Time on GSK3368715 <3 months: 25 (81) n (%)
  Time on GSK3368715 >6 months to 12 months: 1 n (%) and 1 (3) n (%)
  Time on GSK3368715 >12 months: 0
